Values from PubChem BioAssay AID1159578 (Peter MacCallum Cancer Centre, 2015).
Shown is a random part of about 18,000 reagents. About 1,030 of them (5.7%) count as active. 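Inactive calls also include pools with fewer than 3300 nuclei, whose migration was not assessed.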 Raw values vary from plate to plate and are shown uncorrected.

Purpose: 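Knock-downs that alter how fast lymphatic endothelial cells migrate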 (primary screen)
Cell system: human lymphatic endothelial cells
Reagents: siRNA pool against human genes, 40 nM
Duration: 48 h after transfection
Detection: 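High-content imaging of dye-stained cells in a scratch assay measures filled wound area and nuclei per well; duplicate means given as ratio to mock and robust z-score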
Scale: migration robust z-score: higher = faster migration into the scratch; migration relative to mock: higher = more scratch area covered than mock; nuclei per well: higher = more cells in the well
Active means: 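Pools averaging fewer than 3300 nuclei are never called; remaining pools count as changed when migration robust z lies outside -2 to 2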
Calls: active = migration changed; inactive = no migration change, or too few cells

migration robust z-score | migration class with cell-count check | migration relative to mock | nuclei per well, duplicate mean | Outcome | Target gene | PubChem SID
-0.3 | migration z between -2 and 2; enough cells | 0.81 | 4070 | inactive | COL11A2 | SID255349024
-0.49 | migration z between -2 and 2; enough cells | 0.76 | 5632 | inactive | SLX9 | SID255361678
1.19 | migration z between -2 and 2; enough cells | 1.2 | 4006 | inactive | TMSB15A | SID255355522
0.28 | migration z between -2 and 2; enough cells | 0.96 | 5800 | inactive | SLC30A6 | SID255358769
0.96 | migration z between -2 and 2; enough cells | 0.99 | 7629 | inactive | HSD17B1 | SID255350321
0.25 | migration z between -2 and 2; enough cells | 0.95 | 7616 | inactive | TACC1 | SID255352724
0.58 | migration z between -2 and 2; enough cells | 1.04 | 5986 | inactive | OR12D3 | SID255360953
-1.68 | migration z between -2 and 2; enough cells | 0.45 | 4840 | inactive | SLC1A6 | SID255352443
0.08 | migration z between -2 and 2; enough cells | 0.82 | 5796 | inactive | HCFC2 | SID255357212
-0.38 | migration z between -2 and 2; enough cells | 0.79 | 4530 | inactive | H3C11 | SID255353497
-0.5 | migration z between -2 and 2; enough cells | 0.76 | 6026 | inactive | ELOVL2 | SID255358253
-0.42 | migration z between -2 and 2; enough cells | 0.72 | 4266 | inactive | CDK11A | SID255366191
1.19 | migration z between -2 and 2; enough cells | 1.04 | 6510 | inactive | DCLK1 | SID255354109
0.08 | migration z between -2 and 2; enough cells | 0.91 | 5733 | inactive | ACD | SID255360079
1.29 | migration z between -2 and 2; enough cells | 1.06 | 5474 | inactive | PCYT1B | SID255354299
0.35 | migration z between -2 and 2; enough cells | 0.98 | 6012 | inactive | TBC1D10A | SID255361110
0.37 | migration z between -2 and 2; enough cells | 0.98 | 4567 | inactive | PDZD11 | SID255357586
-1.07 | under 3300 nuclei; migration not judged | 0.61 | 3245 | inactive | ZNF766 | SID255361807
-0.48 | migration z between -2 and 2; enough cells | 0.76 | 3864 | inactive | IRS1 | SID255350531
-1.01 | migration z between -2 and 2; enough cells | 0.62 | 5126 | inactive | TOLLIP | SID255358030
1.12 | migration z between -2 and 2; enough cells | 1.02 | 6032 | inactive | PTAFR | SID255351915
-0.24 | migration z between -2 and 2; enough cells | 0.82 | 5966 | inactive | DAZ3 | SID255359245
-1.01 | migration z between -2 and 2; enough cells | 0.62 | 6216 | inactive | PITPNA | SID255351594
-0.13 | migration z between -2 and 2; enough cells | 0.78 | 6258 | inactive | RNF115 | SID255356992
1.03 | migration z between -2 and 2; enough cells | 1.16 | 6106 | inactive | MSANTD4 | SID255361361
1.01 | migration z between -2 and 2; enough cells | 1.15 | 5121 | inactive | GDAP1L1 | SID255360149
1.66 | migration z between -2 and 2; enough cells | 1.31 | 6057 | inactive | SACK1B | SID255364350
0.08 | migration z between -2 and 2; enough cells | 0.9 | 4201 | inactive | KRT18 | SID255350694
0.7 | migration z between -2 and 2; enough cells | 0.94 | 6150 | inactive | BNIP3 | SID255348568
0.45 | migration z between -2 and 2; enough cells | 1 | 6244 | inactive | KRTAP5-2 | SID255365882
0.11 | migration z between -2 and 2; enough cells | 0.82 | 5632 | inactive | B4GALT3 | SID255353749
-0.89 | migration z between -2 and 2; enough cells | 0.66 | 5833 | inactive | OR13G1 | SID255365963
-0.5 | migration z between -2 and 2; enough cells | 0.76 | 5495 | inactive | NT5C3B | SID255362289
0.57 | migration z between -2 and 2; enough cells | 0.92 | 5368 | inactive | SMYD1 | SID255363460
-0.1 | migration z between -2 and 2; enough cells | 0.78 | 4535 | inactive | NDUFB5 | SID255351173
0.52 | migration z between -2 and 2; enough cells | 0.9 | 5654 | inactive | OSBP | SID255351371
-0.91 | migration z between -2 and 2; enough cells | 0.63 | 4774 | inactive | MLNR | SID255350005
2.23 | migration z above 2; enough cells | 1.46 | 6629 | active | ARGLU1 | SID255358396
-0.86 | migration z between -2 and 2; enough cells | 0.66 | 4938 | inactive | COL8A2 | SID255349018
-0.39 | migration z between -2 and 2; enough cells | 0.78 | 6029 | inactive | TAS2R40 | SID255364581
-2.93 | under 3300 nuclei; migration not judged | 0.12 | 2500 | inactive | SSBP2 | SID255356381
-0.26 | migration z between -2 and 2; enough cells | 0.82 | 6200 | inactive | MRPS33 | SID255357833
1.15 | migration z between -2 and 2; enough cells | 1.02 | 5474 | inactive | NAA15 | SID255360677
1.2 | migration z between -2 and 2; enough cells | 1.04 | 4064 | inactive | HOXD11 | SID255350293
0.44 | migration z between -2 and 2; enough cells | 0.89 | 5192 | inactive | BSND | SID255353305
0.57 | migration z between -2 and 2; enough cells | 0.92 | 5835 | inactive | TEAD3 | SID255352808
1.92 | migration z between -2 and 2; enough cells | 1.38 | 6894 | inactive | HNRNPA3 | SID255364260
-0.31 | migration z between -2 and 2; enough cells | 0.8 | 5546 | inactive | NUFIP2 | SID255359447
0.69 | migration z between -2 and 2; enough cells | 1.06 | 7022 | inactive | RALGAPA2 | SID255359328
-0.63 | migration z between -2 and 2; enough cells | 0.72 | 5568 | inactive | EIF3L | SID255357694
0.8 | migration z between -2 and 2; enough cells | 0.96 | 5104 | inactive | SLC26A9 | SID255362288
-0.66 | migration z between -2 and 2; enough cells | 0.71 | 4875 | inactive | SIT1 | SID255356986
0.8 | migration z between -2 and 2; enough cells | 0.96 | 6516 | inactive | YY1 | SID255353164
-1.76 | migration z between -2 and 2; enough cells | 0.47 | 5109 | inactive | ASB3 | SID255357503
-1.34 | under 3300 nuclei; migration not judged | 0.53 | 3194 | inactive | RPS21 | SID255352232
-0.03 | migration z between -2 and 2; enough cells | 0.88 | 6843 | inactive | PIN4 | SID255351591
0.11 | migration z between -2 and 2; enough cells | 0.82 | 5539 | inactive | PCSK1 | SID255351452

Hits, of those listed so far:
migration robust z-score | migration class with cell-count check | migration relative to mock | nuclei per well, duplicate mean | Outcome | Target gene | PubChem SID
2.23 | migration z above 2; enough cells | 1.46 | 6629 | active | ARGLU1 | SID255358396
